The text below walks through data of article PMC7176855.

By UniProt entry, the sequences of proteins in these tests, tags left out.
UniProt Q16665: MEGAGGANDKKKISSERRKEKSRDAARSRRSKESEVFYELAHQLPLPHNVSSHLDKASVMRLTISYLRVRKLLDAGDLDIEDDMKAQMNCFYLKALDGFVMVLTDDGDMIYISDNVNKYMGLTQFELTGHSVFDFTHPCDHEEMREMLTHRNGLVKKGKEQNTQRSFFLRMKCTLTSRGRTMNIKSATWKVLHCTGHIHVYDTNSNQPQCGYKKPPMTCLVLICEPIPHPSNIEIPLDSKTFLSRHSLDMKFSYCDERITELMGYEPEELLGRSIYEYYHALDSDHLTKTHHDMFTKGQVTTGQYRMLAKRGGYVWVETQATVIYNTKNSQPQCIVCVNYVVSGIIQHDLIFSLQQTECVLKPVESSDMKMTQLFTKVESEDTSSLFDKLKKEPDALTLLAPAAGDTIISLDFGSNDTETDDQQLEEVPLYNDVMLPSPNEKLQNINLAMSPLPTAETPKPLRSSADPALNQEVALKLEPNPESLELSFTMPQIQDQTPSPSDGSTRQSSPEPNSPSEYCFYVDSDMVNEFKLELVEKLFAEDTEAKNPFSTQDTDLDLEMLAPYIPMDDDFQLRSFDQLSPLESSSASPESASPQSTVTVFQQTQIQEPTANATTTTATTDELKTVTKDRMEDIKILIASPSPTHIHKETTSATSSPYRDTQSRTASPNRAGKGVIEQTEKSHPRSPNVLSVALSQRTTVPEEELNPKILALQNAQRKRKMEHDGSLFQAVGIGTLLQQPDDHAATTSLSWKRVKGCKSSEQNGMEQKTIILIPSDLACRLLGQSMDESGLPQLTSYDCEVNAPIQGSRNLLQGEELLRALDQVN

Assay [1] concerns the target T1, TSC22 domain family member (TSC22D)3 (human (endogenous in MIO‐M1)) (UniProt Q99576).
T1 sequence: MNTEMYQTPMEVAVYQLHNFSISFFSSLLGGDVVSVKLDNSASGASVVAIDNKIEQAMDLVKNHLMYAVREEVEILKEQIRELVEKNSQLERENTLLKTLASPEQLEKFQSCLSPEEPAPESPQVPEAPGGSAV
Nature of the assay: co-IP; endogenous proteins in extracts of MIO‐M1 cells (triamcinolone acetonide‐treated, hypoxia 1% O2 for 24 h); lysis buffer 1% NP‐40 in PBS; anti‐TSC22D3 or anti‐HIF‐1α antibody with Dynabeads Protein G overnight at 4°C; immunoblot. In general terms: Immunoblotting shows a protein as a band on a membrane.

Assay [2] has as its target hypoxia‐inducible factor (HIF)‐1α (human (endogenous in MIO‐M1)) (UniProt Q16665). Described as above.

Results are given in words; binding and its absence hold for the method and conditions named. Binding seen in cells or lysates may run through a third protein. Some binding calls cover weakened binding; strength is not graded here.

With “hypoxia‐inducible factor (HIF)‐1α (from UniProt Q16665 1-826)”, in assay [1], the binding result is “binds”.

B1: TSC22 domain family member (TSC22D)3 (protein, UniProt Q99576 1-134)
chain: MNTEMYQTPMEVAVYQLHNFSISFFSSLLGGDVVSVKLDNSASGASVVAIDNKIEQAMDLVKNHLMYAVREEVEILKEQIRELVEKNSQLERENTLLKTLASPEQLEKFQSCLSPEEPAPESPQVPEAPGGSAV
As to B1, in assay [2], the binding result is “binds”.
